Results as given in the supplement of paper PMC10338343.
± gives the standard deviation. This is a selection; strong and weak results do not stand in their true shares. Many entries were measured with a wide error.

Each sequence was assayed on MILI (PIWIL2) piRISC loaded with Kctd7 piRNA (26 nt) (assay: pre-steady-state target cleavage rate (min^-1); MIWI and MILI are mouse PIWI proteins and EfPiwi is from a freshwater sponge; tags in brackets are library labels; higher = faster piRNA-guided slicing of the target). Conditions: guide: Kctd7 piRNA 5'p-UGUUAAUCUCUCAGAGAAGGUGACAG; auxiliary factor: 500 nM mouse GTSF1.
Summary of the method: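 Active affinity-purified piRISC (1 nM) loaded with one synthetic guide was mixed with a transcribed, DNA-blocked target RNA library (0.1 nM), with or without 500 nM GTSF1 partner protein, in HEPES–potassium acetate buffer at 33 °C for 0–8 or 0–960 min. Uncleaved targets were sequenced, normalised to depth and to weakly complementary targets, and pooled across three trials, with k3 capped at 0.0001 min^-1. The pre-steady-state cleavage rate was determined with a burst-and-steady-state fit.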

| Sequence | pre-steady-state target cleavage rate |
| --- | --- |
| UAGUGACAGACCUUCUCAUGAGAGAUUAACA | 0.00109 ± 0.0098 |
| UAGUGACACACCUUCUCUGAGAGUUAAACA | 0.00447 ± 0.0057 |
| UAGUGACAGUCCUUCUCUGAGAGUAAUUGA [g8:g20:cont:t1A] | < 0.0001 |
| UAGUGACAGUGGAAGUCUGAGGGAUUAACA | 0.000573 ± 0.0045 |
| UAGUGACACACCUUCUCUGAGAAUUAACA | 0.00378 ± 0.0048 |
| UAGUCUGUCACCUUCUCUGAGAGUAUAACA | 0.122 ± 0.022 |
| UAGUGACAGUGCUUCUCUCAGAGAUUAUCA | 0.00269 ± 0.0036 |
| UAGUGACAGUGGAUCUCUGAGAGAUUAACCA | 0.00143 ± 0.0026 |
| UAGUGACUCACCUUCUCUCUCAGAUUAUGA | 0.000154 ± 0.056 |
| UAGUGACAGUCCUUCUCUGUCUGAUUAACA | 0.000839 ± 0.0063 |
| UAGUCUGUCACCUUCUCACAGAGAUUAAGA | 0.00338 ± 0.0044 |
| UAGUGACAGUGGAAGAGACAGAGUAAAACA | 0.000177 ± 0.035 |
| UAGUGACAGACCAACUCUGAGAGAUUAUGA | 0.00108 ± 0.0061 |
| UAGUGAGUCACCUUCUCUGAGAGUAUUAACA | 0.158 ± 0.019 |
| UAGUGACUCACCAAGUCUGAGAGAUUAUGA | 0.00166 ± 0.0052 |
| UAGUGAGUCACCUUCUCUGAGAGUUAAACA | 0.297 ± 0.086 |
| UAGUGACUCACCAUCUCUGAGAGAUAUUGA | 0.00115 ± 0.0055 |
| UAGUGACAGUCCUUGUCUGAGAGUUUAACA | 0.00225 ± 0.0063 |
| UAGUGACAGUGCUUCUCUGAGAAAUUAACA | 0.00916 ± 0.0047 |
| UAGUGACAGUGGAACUCUGAGAGGUUAACA | 0.00034 ± 0.018 |
| UAGUGACACACCUUCUCUCUGAGAUUAUGA | 0.00107 ± 0.011 |
| UAGUGACAGUGCAUCUCUGAGAGAUUUACA | 0.00149 ± 0.0043 |
| UAGUGACAGACCUUCUCUGAGAGAAUAUGA | 0.000632 ± 0.016 |
| UAGUGACAGUGCUUCUCUGUAGAGAUUAACA | 0.000264 ± 0.014 |

| Sequence | pre-steady-state target cleavage rate |
| --- | --- |
| UAGUGUGUCAGGAUCUCUGAGAGAUAUUGA | 0.00026 ± 0.013 |
| UAGUCUGUCACCUUGACUGAGAGAUAUUGA | 0.000369 ± 0.02 |
| UAGUGACACACGAUCUCUGAGAGAUUAACA | 0.0352 ± 0.0045 |
| UAGUGACAGUGGAUCUCUGGGAGAUUAACA | 0.0017 ± 0.0023 |
| UAGUGAGUCUGGUUCUCUGAGAGAUUAAGA | 0.00209 ± 0.0047 |
| UAGUGACAGUGGAUGCUCUGAGAGAUUAACA | 0.00231 ± 0.0032 |
| UAGUGACAGUGGAACCCUGAGAGAUUAACA | 0.000164 ± 0.024 |
| UAGUCUGUCACCUUCUCCGAGAGAUUAACA | 0.21 ± 0.038 |
| UAGUCUGUCACCUUCUCUGGAGAGAUUAACA | 0.00236 ± 0.0048 |
| UAGUCUUCACCUUCUCUGAGAGAUUAACA | 0.213 ± 0.019 |
| UAGUGACAGUGCUUCUCUGGAGAGAUUAACA | 0.000127 ± 0.022 |
| UAGUGACAGUGGUUCUGUGAGAGAUUAUCA | 0.00128 ± 0.0063 |
| UAGUGACAGUGGAAGACUGAGAGAGUUAACA | 0.000235 ± 0.014 |
| UAGUCUGUGACCUUCUCUGAGUGAUUAACA | 0.002 ± 0.0047 |
| UAGUGACUCACCUUCUCUGUCUGAUAUUGA | 0.00023 ± 0.038 |
| UAGUGACAGUGGAAGACUCAGUGAUUAACA | 0.000263 ± 0.02 |
| UAGUGUGUCACCUUGACUGAGAGAUUAUGA | 0.000806 ± 0.013 |
| UAGUGACAGUGCUUCUCUGAGUGAUUAACA | 0.000967 ± 0.0051 |
| UAGUGACAGACCAUCUCUGAGUGAUUAACA | 0.00125 ± 0.0083 |
| UAGUGUGUCACCUUGUCUGAGAGAUUAACA | 0.134 ± 0.021 |
| UAGUGACAGUGCUUCUCGAGAGAUUAACA | 0.00253 ± 0.0049 |
| UAGUGUGUCACCUUGAGUGAGAGAUUAUGA | 0.000567 ± 0.022 |
| UAGUGACACACCUUCUCUGACACAUUAACA | 0.00164 ± 0.0058 |
| UAGUGACAGUGGAAGUCUGAGAUGAUUAACA | 0.000491 ± 0.007 |

2 records drawn at random from the list so far, as already listed:

| Sequence | pre-steady-state target cleavage rate |
| --- | --- |
| UAGUGAGUCUGGUUCUCUGAGAGAUUAAGA | 0.00209 ± 0.0047 |
| UAGUGACAGUGCUUCUCUGAGAAAUUAACA | 0.00916 ± 0.0047 |

The results go on.

| Sequence | pre-steady-state target cleavage rate |
| --- | --- |
| UAGUCUGUCACCUUCUCUGUGUGAUUAACA | 0.00321 ± 0.0053 |
| UAGUGAGUCACCUUGACUGAGAGAUUUUGA | 0.000491 ± 0.022 |
| UAGUGAGUCACCUUCUCUGAGUCAUAUUGA | 0.0008 ± 0.012 |
| UAGUGACAGUCCUUCUCUGUGAGAUUAUGA | 0.00149 ± 0.0049 |
| UAGUGACACACCUUGACUGAGAGAUUUUGA | 0.00107 ± 0.013 |
| UAGUGACUCACCUUCAGAGAGAGAUAUUGA | 0.000401 ± 0.015 |
| UAGUGAGUCACCUUCAGAGAGAGAUUAUGA | 0.00216 ± 0.007 |
| UAGUGACAGUGCAUCUCUGAGAGAUUAAGA | 0.00125 ± 0.005 |
| UAGUGACUCACCUUCUCUCUCAGAUUAACA | 0.00199 ± 0.0047 |
| UAGUGACAGUCCUUGUGUGAGAGAUUAACA | 0.0291 ± 0.0078 |
| UAGUGACAGUGGAAGACUGAGAGAUUAAACA | 0.000127 ± 0.019 |
| UAGUGACAGUGGUUCUCUGAGAGAUUAAUCA | 0.00205 ± 0.0027 |
| UAGUGACAGUGCUUCUCUGAGAGAUGAACA | 0.00232 ± 0.003 |
| UAGUGACACACCUUCUCUGACUCAUUAAGA | 0.000494 ± 0.012 |
| UAGUGACAGUGGAAGUCUGAGAGAUUAAAA | 0.000128 ± 0.045 |
| UAGUGUGUCACCUUCUCUGAGUCAUUUUGA | 0.00122 ± 0.0091 |
| UAGUGUGUCACCUUGAGUGAGAGAUUUUGA | 0.00109 ± 0.011 |
| UAGUGACAGUCCUUCUGUGAGUGAUUAACA | 0.00146 ± 0.0044 |
| UAGUGAGAGACCUUCUCUGAGAGAUAUUGA | 0.00194 ± 0.0065 |
| UAGUGACAGUGGUUCUCUGAGAGGAUUAACA | 0.000787 ± 0.0053 |
| UAGUGUGUCACCUUCUCUGACACAUUAACA | 0.000694 ± 0.016 |
| UAGUGACAGUCCUUCUCUGAUGAGAUUAACA | 0.00278 ± 0.0025 |
| UAGUGACAGUCCUUCUCUCAGAGAUUUACA | 0.00261 ± 0.0046 |
| UAGUGACAGUGCUUCUCUGUGACAUUAACA | 0.00109 ± 0.0057 |

A few values from above.
For pre-steady-state target cleavage rate, UAGUGACAGUGCUUCUCUGUGACAUUAACA is entered as 0.00109 ± 0.0057
For pre-steady-state target cleavage rate, UAGUGUGUCACCUUCUCUGAGUCAUUUUGA is entered as 0.00122 ± 0.0091
